# Data as given in PubChem BioAssay AID540256 (National Center for Advancing Translational Sciences (NCATS), 2011).
# “And” between values parts separate entries of the source, which are not always exact repeats. Identical values can stand only once. Out of some 300,000 compounds screened, about 3,700 (1.2%) were called active. Inconclusive results, whose numbers are uncertain, are shown with a selection of clear calls. Calls come from the whole dose curve; tested in HEK293 cells. Where the call is inconclusive, the potency comes from a doubtful curve fit.
# Assay: qHTS for Inhibitors of binding or entry into cells for Lassa Virus; note: nearly all actives have a fitted effect of over 50% in size
# Details: Lassa virus pseudotype entry inhibition, cell reporter; activity change, negative = inhibition: at 37.9 µM (top of the series) unless noted
# % is set by controls: 0 for no effect and ±100 for the full control effect; potency is the fitted concentration of half-maximal effect.
Structure (SMILES),"activity change, negative = inhibition",Potency
CCOc1ccc(C(CC(=O)Nc2ccc(C(=O)OC)cc2)N2Cc3ccccc3C2=O)cc1OC (stereo not drawn),inactive: 8.61% [at 46.1 µM],
C=CCn1c(=N)n(CC(=O)c2ccc(Cl)cc2)c2ccccc21,,"inconclusive: 35.5 µM [inhibitor, single point]"
Cc1cc2c(cc1C)NP(=S)(c1ccccc1)N2,,"inconclusive: 6.31 µM [activator, single point]"
COc1cccc(-n2c(SCc3cc(=O)oc4cc(O)c(O)cc34)nc3ccccc3c2=O)c1,,"inconclusive: 18.4 µM [inhibitor, partial curve]"
CC(=NNc1nc2ccccc2o1)c1cc2ccccc2cn1,,active: 0.794 µM
CC(=O)Nc1ccc(NC(=O)CN2CCN(c3cccc(C(F)(F)F)c3)CC2)cc1,,"inconclusive: 3.16 µM [inhibitor, partial curve, poor fit]"
Cc1ccc(C2Nc3cccc4cccc(c34)N2)cc1,,"inconclusive: 17.8 µM [activator, partial curve, poor fit]"
Cn1c(=O)c2c(nc(NCc3ccccc3)n2Cc2ccc(Cl)c(Cl)c2)n(C)c1=O,,"inconclusive: 5.62 µM [inhibitor, partial curve]"
Cc1ccc(-n2cc(CN3CCC(CO)(Cc4cccc(C(F)(F)F)c4)CC3)cn2)cc1,,"inconclusive: 35.5 µM [inhibitor, single point]"
N#C/C(=C\c1ccc([N+](=O)[O-])o1)C(=O)Nc1ccc(F)cc1,inactive: -9.7%,
COc1ccc(-c2noc(CSc3nnc(C)n3-c3ccc(C)cc3)n2)cc1,,"inconclusive: 1.41 µM [inhibitor, full curve, poor fit]"
CN(CCOc1ccc(Cl)cc1)Cc1cccc(S(=O)(=O)N(C)C)c1,,"inconclusive: 14.1 µM [inhibitor, single point]"
O=C(Nc1ccccc1N1CCCCC1)c1ccc([N+](=O)[O-])o1,,"inconclusive: 10 µM [inhibitor, partial curve, poor fit]"
Cc1cccc2c(CCNC(=O)c3ccc([N+](=O)[O-])cc3)c[nH]c12,inactive: -13.8%,
CC(OC(=O)c1ccc(Br)c(S(=O)(=O)N2CCOCC2)c1)C(=O)NC1CCCCC1C (stereo not drawn),,"inconclusive: 22.4 µM [inhibitor, single point]"
CC(C)n1cnc2c(oc3ccccc32)c1=O,,"inconclusive: 35.5 µM [activator, single point]"
CN(C)c1ccc(NC(=O)C2(c3cccs3)CCOCC2)cc1,inactive: 2.64% [at 46.1 µM],
O=[N+]([O-])c1ccc(Cl)cc1C=NNc1ccccn1,,"inconclusive: 8.91 µM [activator, partial curve, poor fit]"
CN(C)S(=O)(=O)c1ccc(NC(=O)/C=C/c2ccccc2Cl)cc1,inactive: -20.4%,
Cc1ccc2nc(C(F)C(F)(F)F)[nH]c2c1 (stereo not drawn),inactive: -0.554% [at 46.1 µM],
CCOC(=O)C1=C(C)NC(C)=C(C(=O)OCC)C1c1sccc1C,inactive: -4.6%,
Cn1c(=O)c2c(nc(SCC(=O)NC34CC5CC(CC(C5)C3)C4)n2C)n(C)c1=O,,"inconclusive: 16.4 µM [activator, partial curve, poor fit]"
COc1cc2c(cc1OC)C(c1ccc(-c3ccccc3Cl)o1)=NCC2,,"inconclusive: 1.83 µM [inhibitor, partial curve, poor fit]"
Cc1ccccc1-c1cc(C(=O)n2cccn2)c2cc(Cl)ccc2n1,,"inconclusive: 18.3 µM [inhibitor, single point]"
CCc1ccccc1NC(=O)COC(=O)c1cn(CC)c2nc(C)ccc2c1=O,inactive: -12.9% [at 46.1 µM],

Structure (SMILES),"activity change, negative = inhibition",Potency
Cc1cc(C)n(C(=O)CNC(=O)c2cccc(F)c2)n1,inactive: -7.61% [at 46.1 µM],
CC(=O)c1cccc(OCc2cc(C(=O)N3CCSCC3)no2)c1,inactive: 0.366%,
COc1ccc(CN=CC2=C(O)CNC2=O)cc1,inactive: 12%,
Cc1ccc(N=CC=C2OC(C)(C)C(C)(C)O2)c(C)c1,,"inconclusive: 6.51 µM [inhibitor, single point]"
CN1CCN(C(=O)CCCOc2cc(=O)n(C)c3ccccc23)CC1,,"inconclusive: 23.1 µM [inhibitor, single point]"
Cc1nn(CCOc2ccccc2)c(=O)n1-c1ccc(Cl)cc1,inactive: 4.04%,
Cc1ccccc1N=Nc1ccc(O)c2ncccc12,,"inconclusive: 7.94 µM [inhibitor, partial curve, poor fit]"
O=C(CNC(=O)c1ccncc1)N/N=C/c1cc(Br)ccc1OCc1ccccc1,,"inconclusive: 25.1 µM [inhibitor, partial curve, poor fit]"
O=C(/C=C/Nc1ccccc1F)c1cccs1,,active: 1.41 µM
CCC(CC)C(=O)Nc1cccc(/C(C)=N/NC(=O)c2c(Br)cnn2C)c1,inactive: -2.55%,
CC(=NNc1nc2ccccc2o1)c1ncccn1,,active: 0.891 µM
c1ccc(CNc2ncnc3sc4c(c23)CCC4)nc1,inactive: -2.97%,
CCn1ncc(CNC(=O)CCCSc2nc(-c3ccco3)cc(C(F)(F)F)n2)c1C,inactive: -10.4%,
CCOC(=O)C1=CCN(Cc2ccccc2)CC1,inactive: -1.19% [at 46.1 µM],
CN(CC(=O)Nc1ccc(F)cc1)C(=O)COC(=O)CN1C(=O)NC2(CCCC2)C1=O,,"inconclusive: 1.26 µM [inhibitor, single point]"
Cc1cccc(N2CCN(C(=O)c3ccc4c(c3)N(Cc3cccc(Cl)c3)C(=O)c3ccccc3S4=O)CC2)c1C (stereo not drawn),inactive: -14.5% [at 46.1 µM],
COc1ccc(N2CCN(Cc3cc(=O)oc4cc(C)c(Cl)c(C)c34)CC2)cc1,,"inconclusive: 6.31 µM [inhibitor, partial curve, poor fit]"
Cc1nc(-c2ccccc2)sc1C(=O)Nc1ccccc1F,inactive: -13.5%,
O=C(Nc1cccc(F)c1)c1ccc(-c2ccccc2Cl)o1,,"inconclusive: 1.84 µM [activator, partial curve]"
COc1ccccc1OCCOc1ccc(C(=O)c2ccccc2)cc1,,"inconclusive: 13 µM [inhibitor, partial curve, poor fit]"
COc1ccc(NC(=O)Nc2nnc(Cc3ccc(F)cc3)s2)cc1,,"inconclusive: 1.12 µM [inhibitor, full curve]"
Cc1ccc(-c2nnc(CSc3nncn3N)o2)cc1,inactive: 3.53%,
O=C(NCCNC(=O)c1cnccn1)c1ccc(Cl)cc1,inactive: 25.6% [at 46.1 µM],
O=C(CSCc1ccc(F)cc1)N1CCc2c([nH]c3ccccc23)C1c1ccccc1 (stereo not drawn),,"inconclusive: 15.8 µM [inhibitor, partial curve, poor fit]"
CC1CCC(C(C)C)C(OC(=O)COC(=O)c2cc(O)ccc2N)C1 (stereo not drawn),,"inconclusive: 14.1 µM [inhibitor, single point]"

Structure (SMILES),"activity change, negative = inhibition",Potency
CC(Sc1nnc(-c2cccs2)n1Cc1ccccc1)C(=O)NCc1ccc2c(c1)OCO2 (stereo not drawn),,"inconclusive: 14.1 µM [inhibitor, partial curve, poor fit]"
COc1cc2nc(N3CCN(C(=O)C4COc5ccccc5O4)CC3)nc(N)c2cc1OC (stereo not drawn),,"inconclusive: 20.6 µM [inhibitor, single point] and inconclusive: 29.1 µM [inhibitor, single point]"
CC(CNC(=O)c1cc2ccccn2n1)c1ccccc1 (stereo not drawn),inactive: 17.1% [at 46.1 µM],
COc1cc(C=O)ccc1OCCOCCOc1ccc(Cl)cc1,inactive: -14.5%,
Cc1cc(Br)ccc1NC(=O)C(NS(=O)(=O)c1cccs1)c1ccccc1 (stereo not drawn),inactive: 2.93% [at 46.1 µM],
O=C(NC(=S)NNC(=O)c1ccccc1O)c1ccccc1,inactive: -12.6% [at 46.1 µM],
O=C1CC2(CCN(C(=O)COc3ccc(F)cc3)CC2)Oc2ccccc21,,"inconclusive: 20 µM [inhibitor, partial curve, poor fit]"
COc1ccc(C2NC(=O)NC(C)=C2C(=O)OCc2ccccc2)cc1 (stereo not drawn),,"inconclusive: 35.5 µM [inhibitor, single point]"
Cc1ccc(-n2ncc(C(=O)N(C)Cc3ccccc3)c2-n2cccc2)cc1,,"inconclusive: 35.5 µM [inhibitor, single point]"
N#CC(C#N)=Cc1cc2ccccc2nc1N1CCCCC1,,"inconclusive: 12.6 µM [inhibitor, partial curve, poor fit]"
O=C(CSc1nnc(Cc2ccccc2)o1)c1ccc(F)cc1,inactive: -12.4%,
C=CCNc1nc(Cl)nc(Nc2ccc(OC)cc2)n1,inactive: -13%,
Cc1cc(F)ccc1NC(=O)CN1C(=O)CCc2cc(S(=O)(=O)N3CCOCC3)ccc21,,"inconclusive: 6.31 µM [activator, single point]"
Cc1cc(C)nc(Nc2n[nH]c(-c3ccc(N)cc3)n2)n1,inactive: -11.7%,
COc1ccc(C(=O)Oc2ccc(F)cc2C(=O)/C=C/c2ccc(OC)c(OC)c2)cc1,,"inconclusive: 29.1 µM [inhibitor, single point]"
COC(=O)c1cc(NC(=S)Nc2cc(Cl)cc(Cl)c2)cc(C(=O)OC)c1,inactive: -1.44%,
COc1cccc(CN(C)C(=O)C2CCN(S(=O)(=O)c3ccc(C)cc3)CC2)c1OC,,"inconclusive: 8.91 µM [inhibitor, partial curve, poor fit]"
CN(C)Cc1c(C(=O)N/N=C/c2ccccc2OCc2c(F)cccc2Cl)nnn1-c1nonc1N,,"inconclusive: 22.4 µM [inhibitor, partial curve, poor fit]"
Cc1cccc(Cn2c(C)c(C)c3cc(C(=O)NCCN4CCOCC4)ccc32)c1,,"inconclusive: 35.5 µM [inhibitor, single point]"
Cc1ccc([N+](=O)[O-])cc1N/C=C/C(=O)c1ccco1,,active: 11.6 µM
CCOC(=O)c1csc(NC(C)=O)n1,inactive: -1.25% [at 46.1 µM],
CC12C=C(C=Cc3ccc(Br)cc3)C(C)(C1)[C@H](c1ccc(Br)cc1)CC2=O (stereo partly drawn),,"inconclusive: 0.596 µM [inhibitor, partial curve, poor fit]"
CCCC(=O)N1CC(=O)Nc2ccc(C)cc2C1c1ccccc1 (stereo not drawn),,"inconclusive: 14.1 µM [inhibitor, single point]"
